Results are given in words; binding and its absence hold for the method and conditions named. Binding seen in cells or lysates may run through a third protein. A yes stands for co-enrichment or nearness to the bait. Other partners may have been found.
Biological target: FLAG-FOXP3 (human) (UniProt Q9BZS1)
Experiment: affinity purification with mass spectrometry; 293T transfected with FLAG-Foxp3 or empty vector; high salt lysis buffer (20 mM Tris-Cl pH 7.5, 420 mM NaCl, 1% TritonX-100); anti-FLAG agarose beads overnight at 4°C; SDS-PAGE, silver stain, specific bands cut, LC-MS/MS

By UniProt entry, the sequences of proteins in these tests, tags left out. Residues count along the entry.
UniProt Q9BZS1, residues 1-417: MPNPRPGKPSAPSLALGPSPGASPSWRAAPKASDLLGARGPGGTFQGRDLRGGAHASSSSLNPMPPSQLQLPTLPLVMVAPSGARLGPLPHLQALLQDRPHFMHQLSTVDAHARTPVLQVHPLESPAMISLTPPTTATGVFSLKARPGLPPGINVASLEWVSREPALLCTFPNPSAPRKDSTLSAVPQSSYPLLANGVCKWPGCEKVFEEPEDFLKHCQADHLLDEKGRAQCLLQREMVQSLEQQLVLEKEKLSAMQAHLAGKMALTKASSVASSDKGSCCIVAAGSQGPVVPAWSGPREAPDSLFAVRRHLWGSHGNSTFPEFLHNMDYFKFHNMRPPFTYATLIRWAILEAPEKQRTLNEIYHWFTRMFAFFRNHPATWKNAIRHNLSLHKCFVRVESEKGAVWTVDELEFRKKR
UniProt O14744: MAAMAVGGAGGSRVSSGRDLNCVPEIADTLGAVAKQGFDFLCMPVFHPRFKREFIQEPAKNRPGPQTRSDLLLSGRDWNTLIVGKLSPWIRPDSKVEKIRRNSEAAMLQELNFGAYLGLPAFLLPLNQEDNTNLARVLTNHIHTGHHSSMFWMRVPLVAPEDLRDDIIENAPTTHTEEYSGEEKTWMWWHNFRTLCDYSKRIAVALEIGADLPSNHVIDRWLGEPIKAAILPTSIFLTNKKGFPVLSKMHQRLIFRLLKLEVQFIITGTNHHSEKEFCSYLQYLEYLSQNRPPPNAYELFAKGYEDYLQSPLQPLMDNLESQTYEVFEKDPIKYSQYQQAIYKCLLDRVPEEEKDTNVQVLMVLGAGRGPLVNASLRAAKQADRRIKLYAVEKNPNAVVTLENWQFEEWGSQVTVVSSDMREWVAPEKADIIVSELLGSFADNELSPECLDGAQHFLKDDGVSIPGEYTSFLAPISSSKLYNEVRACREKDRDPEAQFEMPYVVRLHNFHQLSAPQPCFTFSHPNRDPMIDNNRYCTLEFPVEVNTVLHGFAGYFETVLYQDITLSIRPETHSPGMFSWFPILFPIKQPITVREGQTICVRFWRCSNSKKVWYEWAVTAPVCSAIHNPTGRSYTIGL

**Q.** With “protein arginine methyltransferase (PRMT5), endogenous in 293T cells (from UniProt O14744 1-637) (enzyme)” as the substance, how does the binding read?
**A.** binds

Source: publication PMC6375878
